Experimental data published in the supplement of paper PMC10849652.
The list shows a part of the results.

By UniProt entry, the sequences of proteins in these tests, tags left out. Where a name states a change or a piece, a line headed by the entry shows the natural chain unless it says otherwise.
UniProt P63027, whole entry, looked up: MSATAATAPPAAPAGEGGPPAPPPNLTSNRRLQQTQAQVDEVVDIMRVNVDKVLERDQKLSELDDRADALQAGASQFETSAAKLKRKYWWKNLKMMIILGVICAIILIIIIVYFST
UniProt Q9P0L0: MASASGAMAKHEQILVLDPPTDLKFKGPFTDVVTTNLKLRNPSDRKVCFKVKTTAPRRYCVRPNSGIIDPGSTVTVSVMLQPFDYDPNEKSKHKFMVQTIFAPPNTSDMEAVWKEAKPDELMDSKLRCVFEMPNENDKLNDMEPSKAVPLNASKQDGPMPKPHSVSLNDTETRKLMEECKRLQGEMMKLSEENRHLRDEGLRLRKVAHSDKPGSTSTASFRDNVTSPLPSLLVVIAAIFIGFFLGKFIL
UniProt Q9NYU1: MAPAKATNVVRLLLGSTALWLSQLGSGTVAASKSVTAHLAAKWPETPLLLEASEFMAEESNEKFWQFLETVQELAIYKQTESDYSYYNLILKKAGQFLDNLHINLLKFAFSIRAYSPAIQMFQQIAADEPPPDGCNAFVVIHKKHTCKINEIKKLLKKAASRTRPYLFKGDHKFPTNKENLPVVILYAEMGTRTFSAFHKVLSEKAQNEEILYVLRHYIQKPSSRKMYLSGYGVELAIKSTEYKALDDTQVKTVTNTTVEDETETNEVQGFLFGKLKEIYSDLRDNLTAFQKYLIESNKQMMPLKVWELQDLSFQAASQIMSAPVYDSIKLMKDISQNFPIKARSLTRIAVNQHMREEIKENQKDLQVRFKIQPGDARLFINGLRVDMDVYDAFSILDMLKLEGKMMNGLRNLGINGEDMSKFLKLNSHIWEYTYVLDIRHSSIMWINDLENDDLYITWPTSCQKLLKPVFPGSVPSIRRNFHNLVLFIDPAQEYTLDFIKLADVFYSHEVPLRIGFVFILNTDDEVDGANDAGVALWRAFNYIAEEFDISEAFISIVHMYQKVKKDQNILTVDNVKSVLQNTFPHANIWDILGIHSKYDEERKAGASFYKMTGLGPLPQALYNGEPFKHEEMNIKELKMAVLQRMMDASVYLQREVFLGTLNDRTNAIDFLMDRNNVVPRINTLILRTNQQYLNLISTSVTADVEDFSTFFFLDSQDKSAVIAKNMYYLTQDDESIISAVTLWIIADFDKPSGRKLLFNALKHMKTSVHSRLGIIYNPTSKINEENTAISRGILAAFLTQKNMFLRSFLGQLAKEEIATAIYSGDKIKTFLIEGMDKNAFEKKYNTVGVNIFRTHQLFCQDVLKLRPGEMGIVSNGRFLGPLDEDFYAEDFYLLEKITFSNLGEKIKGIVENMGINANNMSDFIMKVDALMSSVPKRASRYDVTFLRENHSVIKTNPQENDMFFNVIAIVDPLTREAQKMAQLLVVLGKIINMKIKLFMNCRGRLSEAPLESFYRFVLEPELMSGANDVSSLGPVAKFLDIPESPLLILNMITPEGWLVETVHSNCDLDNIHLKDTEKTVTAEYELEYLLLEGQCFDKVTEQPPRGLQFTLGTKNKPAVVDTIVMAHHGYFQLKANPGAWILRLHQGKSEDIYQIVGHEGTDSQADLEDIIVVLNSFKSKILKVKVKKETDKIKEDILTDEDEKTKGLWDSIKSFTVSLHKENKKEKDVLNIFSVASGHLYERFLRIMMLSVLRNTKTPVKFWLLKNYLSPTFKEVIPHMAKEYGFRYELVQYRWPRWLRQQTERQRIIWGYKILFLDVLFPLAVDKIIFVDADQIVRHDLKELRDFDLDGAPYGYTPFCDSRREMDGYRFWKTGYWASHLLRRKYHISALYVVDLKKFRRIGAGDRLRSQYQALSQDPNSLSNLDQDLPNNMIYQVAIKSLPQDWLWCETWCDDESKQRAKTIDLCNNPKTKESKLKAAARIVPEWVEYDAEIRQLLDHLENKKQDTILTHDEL
UniProt P10746: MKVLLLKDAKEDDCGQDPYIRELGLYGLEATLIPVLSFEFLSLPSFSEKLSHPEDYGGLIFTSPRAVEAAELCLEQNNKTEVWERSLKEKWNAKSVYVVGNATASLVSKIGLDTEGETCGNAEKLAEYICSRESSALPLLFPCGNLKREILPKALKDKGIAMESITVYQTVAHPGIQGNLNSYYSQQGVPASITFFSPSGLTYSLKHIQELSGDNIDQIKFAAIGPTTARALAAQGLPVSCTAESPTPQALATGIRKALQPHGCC
UniProt P06132: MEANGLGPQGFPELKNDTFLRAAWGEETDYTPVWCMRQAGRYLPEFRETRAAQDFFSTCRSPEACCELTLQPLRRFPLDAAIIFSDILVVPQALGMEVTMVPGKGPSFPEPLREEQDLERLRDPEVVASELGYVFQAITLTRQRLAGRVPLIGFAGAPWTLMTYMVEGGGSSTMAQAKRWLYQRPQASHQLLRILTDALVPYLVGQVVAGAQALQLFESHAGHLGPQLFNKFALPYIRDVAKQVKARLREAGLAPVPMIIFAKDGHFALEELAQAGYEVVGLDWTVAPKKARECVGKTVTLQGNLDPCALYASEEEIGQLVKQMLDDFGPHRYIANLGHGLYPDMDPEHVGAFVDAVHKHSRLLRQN
UniProt O94763, whole entry, looked up: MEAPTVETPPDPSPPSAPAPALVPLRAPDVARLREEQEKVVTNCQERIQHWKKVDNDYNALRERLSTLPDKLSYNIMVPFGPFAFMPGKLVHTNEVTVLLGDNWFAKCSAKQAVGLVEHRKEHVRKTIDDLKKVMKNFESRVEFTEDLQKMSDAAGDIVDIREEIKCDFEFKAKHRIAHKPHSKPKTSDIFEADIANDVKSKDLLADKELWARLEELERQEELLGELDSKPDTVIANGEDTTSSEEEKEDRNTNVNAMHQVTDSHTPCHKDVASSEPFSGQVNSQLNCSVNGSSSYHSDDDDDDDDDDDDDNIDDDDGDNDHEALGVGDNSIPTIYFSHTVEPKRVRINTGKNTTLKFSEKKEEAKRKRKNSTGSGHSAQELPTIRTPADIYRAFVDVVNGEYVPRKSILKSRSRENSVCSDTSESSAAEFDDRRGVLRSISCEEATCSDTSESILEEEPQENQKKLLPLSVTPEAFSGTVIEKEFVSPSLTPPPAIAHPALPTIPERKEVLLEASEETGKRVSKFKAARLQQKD
UniProt O14562: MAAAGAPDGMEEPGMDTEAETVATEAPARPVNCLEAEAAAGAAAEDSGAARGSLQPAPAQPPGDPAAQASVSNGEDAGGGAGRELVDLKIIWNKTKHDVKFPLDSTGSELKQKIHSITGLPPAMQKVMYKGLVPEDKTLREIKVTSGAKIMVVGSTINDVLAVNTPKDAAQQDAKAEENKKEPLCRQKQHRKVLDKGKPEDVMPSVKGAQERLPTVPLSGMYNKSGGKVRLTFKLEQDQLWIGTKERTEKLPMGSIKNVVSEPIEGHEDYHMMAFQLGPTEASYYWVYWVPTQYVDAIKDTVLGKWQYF
UniProt P15374: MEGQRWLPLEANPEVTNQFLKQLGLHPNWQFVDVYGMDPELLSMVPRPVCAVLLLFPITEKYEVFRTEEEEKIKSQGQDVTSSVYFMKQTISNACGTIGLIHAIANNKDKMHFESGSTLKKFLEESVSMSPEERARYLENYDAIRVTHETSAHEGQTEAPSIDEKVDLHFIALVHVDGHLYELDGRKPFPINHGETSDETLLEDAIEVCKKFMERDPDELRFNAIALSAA
UniProt Q9BV40: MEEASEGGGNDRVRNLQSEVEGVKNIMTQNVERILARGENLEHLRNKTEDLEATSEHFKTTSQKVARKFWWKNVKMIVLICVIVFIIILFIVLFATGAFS
UniProt Q92900: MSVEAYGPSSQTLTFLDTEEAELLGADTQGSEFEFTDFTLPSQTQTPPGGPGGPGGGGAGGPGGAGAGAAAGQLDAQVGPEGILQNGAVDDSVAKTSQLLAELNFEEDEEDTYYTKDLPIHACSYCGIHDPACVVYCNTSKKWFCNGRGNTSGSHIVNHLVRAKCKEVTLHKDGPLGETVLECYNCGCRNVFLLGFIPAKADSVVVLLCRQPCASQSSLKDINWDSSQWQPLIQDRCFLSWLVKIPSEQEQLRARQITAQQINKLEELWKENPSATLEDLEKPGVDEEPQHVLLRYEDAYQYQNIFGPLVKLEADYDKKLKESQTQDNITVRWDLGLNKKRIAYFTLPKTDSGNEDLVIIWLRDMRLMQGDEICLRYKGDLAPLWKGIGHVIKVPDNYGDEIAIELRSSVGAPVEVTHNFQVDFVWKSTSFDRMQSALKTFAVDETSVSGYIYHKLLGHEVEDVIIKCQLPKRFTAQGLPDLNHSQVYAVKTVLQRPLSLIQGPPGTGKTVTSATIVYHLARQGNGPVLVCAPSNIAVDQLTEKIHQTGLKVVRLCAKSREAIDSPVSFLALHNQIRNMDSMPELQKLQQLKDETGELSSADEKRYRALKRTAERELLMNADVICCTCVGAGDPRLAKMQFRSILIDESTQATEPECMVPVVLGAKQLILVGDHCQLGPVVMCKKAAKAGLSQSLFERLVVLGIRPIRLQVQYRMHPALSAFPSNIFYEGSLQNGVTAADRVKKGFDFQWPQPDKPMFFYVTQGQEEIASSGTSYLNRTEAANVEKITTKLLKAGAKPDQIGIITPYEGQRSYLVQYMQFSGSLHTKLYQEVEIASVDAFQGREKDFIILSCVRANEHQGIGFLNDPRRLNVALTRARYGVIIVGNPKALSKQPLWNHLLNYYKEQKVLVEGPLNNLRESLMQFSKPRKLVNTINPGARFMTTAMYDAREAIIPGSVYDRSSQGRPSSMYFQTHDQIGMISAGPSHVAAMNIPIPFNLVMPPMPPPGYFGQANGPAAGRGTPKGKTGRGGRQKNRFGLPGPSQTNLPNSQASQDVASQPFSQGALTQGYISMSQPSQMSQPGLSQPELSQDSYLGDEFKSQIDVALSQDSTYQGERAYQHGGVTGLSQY
UniProt Q9Y3C8: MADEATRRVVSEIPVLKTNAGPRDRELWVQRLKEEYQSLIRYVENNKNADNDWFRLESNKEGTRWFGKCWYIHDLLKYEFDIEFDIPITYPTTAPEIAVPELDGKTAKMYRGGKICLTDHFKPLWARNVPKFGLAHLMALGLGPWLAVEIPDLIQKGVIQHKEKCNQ
UniProt Q15386: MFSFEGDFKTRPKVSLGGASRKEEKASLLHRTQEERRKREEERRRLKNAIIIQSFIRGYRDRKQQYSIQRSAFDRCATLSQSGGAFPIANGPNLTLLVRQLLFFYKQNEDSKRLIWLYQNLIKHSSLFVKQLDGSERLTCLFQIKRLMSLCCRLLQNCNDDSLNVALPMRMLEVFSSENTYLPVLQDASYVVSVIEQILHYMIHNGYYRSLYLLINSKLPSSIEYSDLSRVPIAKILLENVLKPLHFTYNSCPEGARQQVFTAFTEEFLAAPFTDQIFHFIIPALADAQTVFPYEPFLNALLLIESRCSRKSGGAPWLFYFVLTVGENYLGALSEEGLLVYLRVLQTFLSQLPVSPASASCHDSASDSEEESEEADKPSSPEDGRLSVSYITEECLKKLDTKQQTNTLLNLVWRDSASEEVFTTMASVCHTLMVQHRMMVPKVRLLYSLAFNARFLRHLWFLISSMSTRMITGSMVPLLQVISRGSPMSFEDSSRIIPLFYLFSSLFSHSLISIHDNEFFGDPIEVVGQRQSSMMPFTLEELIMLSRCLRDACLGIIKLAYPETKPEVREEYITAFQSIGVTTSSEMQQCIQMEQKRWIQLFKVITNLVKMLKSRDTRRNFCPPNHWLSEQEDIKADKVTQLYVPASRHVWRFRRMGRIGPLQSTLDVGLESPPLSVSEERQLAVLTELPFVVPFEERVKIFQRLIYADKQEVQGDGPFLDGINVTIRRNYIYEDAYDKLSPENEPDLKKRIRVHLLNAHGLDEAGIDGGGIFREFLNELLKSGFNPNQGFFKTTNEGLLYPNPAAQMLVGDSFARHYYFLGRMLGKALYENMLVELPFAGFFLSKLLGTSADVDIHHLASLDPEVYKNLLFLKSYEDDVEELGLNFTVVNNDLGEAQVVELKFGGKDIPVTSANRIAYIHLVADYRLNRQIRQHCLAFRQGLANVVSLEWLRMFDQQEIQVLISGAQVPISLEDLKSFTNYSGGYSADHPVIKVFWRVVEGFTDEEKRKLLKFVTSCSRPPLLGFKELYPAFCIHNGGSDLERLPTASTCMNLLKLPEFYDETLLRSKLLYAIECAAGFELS
UniProt Q92575: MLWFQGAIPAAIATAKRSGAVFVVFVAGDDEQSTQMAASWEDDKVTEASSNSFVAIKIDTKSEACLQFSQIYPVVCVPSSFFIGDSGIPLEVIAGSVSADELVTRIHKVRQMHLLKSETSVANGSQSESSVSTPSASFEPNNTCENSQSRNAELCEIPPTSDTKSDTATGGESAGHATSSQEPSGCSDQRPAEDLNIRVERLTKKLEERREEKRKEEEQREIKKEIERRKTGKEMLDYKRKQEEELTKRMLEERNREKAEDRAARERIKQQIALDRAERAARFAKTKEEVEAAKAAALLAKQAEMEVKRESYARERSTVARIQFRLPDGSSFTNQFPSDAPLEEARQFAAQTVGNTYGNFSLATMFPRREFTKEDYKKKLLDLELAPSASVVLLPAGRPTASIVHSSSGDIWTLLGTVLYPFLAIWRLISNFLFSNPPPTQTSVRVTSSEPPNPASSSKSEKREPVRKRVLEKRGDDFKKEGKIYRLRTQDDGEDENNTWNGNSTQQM

compound: CC1=C(C(CC(=O)N1)C2=CC=C(C=C2)C(F)(F)F)C(=O)NC3=C(C=C4C(=C3)C=NN4)F; assay: log2 fold change, soluble protein after heating vs DMSO (PISA); higher = thermal stabilisation; K562 cells, 10 uM, 30 min; active = over 0.2 and 3.5 SD of the protein, either way, in both replicates (recomputed)
In short: (§1)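 K562 cells at 2×10^6 cells/mL were given 10 μM compound for 30 min. Aliquots then went through 3 min of heating across 48°C-58°C, were pooled, and were extracted in PBS with 0.5% NP-40 at 4°C, and the supernatant after 21,000xg for 90 min was quantified by TMTpro 16plex LC-MS/MS with channel sums equalised. Thermal stability relative to control samples, from duplicates, is given as log2 fold change.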

Row | Target | log2 fold change
1 | VAMP2 (UniProt P63027) | inactive: 0.022
2 | UCK2 (UniProt Q9BZX2) | inactive: 0.002
3 | VAPA (UniProt Q9P0L0) | inactive: 0.011
4 | UGGT2 (UniProt Q9NYU1) | inactive: 0.008
5 | UROS (UniProt P10746) | inactive: -0.031
6 | USP16 (UniProt Q9Y5T5) | inactive: -0.194
7 | UPF2 (UniProt Q9HAU5) | inactive: -0.034
8 | USE1 (UniProt Q9NZ43) | inactive: 0.02
9 | UBL7 (UniProt Q96S82) | inactive: -0.029
10 | UROD (UniProt P06132) | inactive: -0.023
11 | UQCRFS1 (UniProt P47985) | inactive: -0.003
12 | URI1 (UniProt O94763) | inactive: -0.025
13 | USP10 isoform 2 (UniProt Q14694) | inactive: -0.004
14 | USP30 (UniProt Q70CQ3) | inactive: -0.043
15 | UBFD1 (UniProt O14562) | inactive: 0.005

compound: CC1=C(C2=C(C=C1)C(=O)C3=CC=CC=C3N2CCCN)C; assay: as above
In short: as §1

Row | Target | log2 fold change
16 | UBQLN2 (UniProt Q9UHD9) | inactive: 0.094
17 | UQCC1 (UniProt Q9NVA1) | inactive: -0.014
18 | USP1 (UniProt O94782) | inactive: -0.245
19 | UCK1 (UniProt Q9HA47) | inactive: 0.027
20 | UCHL3 (UniProt P15374) | inactive: 0.047
21 | VAC14 (UniProt Q08AM6) | inactive: 0.043
22 | UTP15 (UniProt Q8TED0) | inactive: -0.073
23 | VAMP8 (UniProt Q9BV40) | inactive: -0.015
24 | VASP (UniProt P50552) | inactive: 0.123
25 | URGCP (UniProt Q8TCY9) | inactive: -0.128
26 | UBL5 (UniProt Q9BZL1) | inactive: -0.105
27 | UIMC1 (UniProt Q96RL1) | inactive: 0.196
28 | USP47 (UniProt Q96K76) | inactive: 0.029
29 | UNC13D isoform 3 (UniProt Q70J99) | inactive: -0.071
30 | UNC45A (UniProt Q9H3U1) | inactive: 0.032
31 | UVRAG (UniProt Q9P2Y5) | inactive: 0.095
32 | URI1 isoform 4 (UniProt O94763) | inactive: 0.017
33 | VAMP4 (UniProt O75379) | inactive: -0.058
34 | UQCRQ (UniProt O14949) | inactive: 0.001
35 | UBR7 (UniProt Q8N806) | inactive: -0.033

Row | Target | log2 fold change
36 | UPF1 (UniProt Q92900) | inactive: 0.052
37 | UFC1 (UniProt Q9Y3C8) | inactive: -0.034
38 | UBE3C (UniProt Q15386) | inactive: 0.034
39 | UBXN4 (UniProt Q92575) | inactive: 0.046
40 | VAMP2 (UniProt P63027) | inactive: 0.036
41 | UCK2 (UniProt Q9BZX2) | inactive: 0.04
42 | VAPA (UniProt Q9P0L0) | inactive: 0.022
43 | UGGT2 (UniProt Q9NYU1) | inactive: -0.035
44 | UROS (UniProt P10746) | inactive: 0.041
45 | USP16 (UniProt Q9Y5T5) | inactive: -0.013
46 | UPF2 (UniProt Q9HAU5) | inactive: -0.093
47 | USE1 (UniProt Q9NZ43) | inactive: 0.011
48 | UBL7 (UniProt Q96S82) | inactive: 0.196
49 | UROD (UniProt P06132) | inactive: 0.047
50 | UQCRFS1 (UniProt P47985) | inactive: 0.004
51 | URI1 (UniProt O94763) | inactive: 0
52 | USP10 isoform 2 (UniProt Q14694) | inactive: -0.042
53 | USP30 (UniProt Q70CQ3) | inactive: -0.044
54 | UBFD1 (UniProt O14562) | inactive: 0.023
